Laboratory results: PubChem BioAssay AID1224830 (NIAID, 2016)
Assay: 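Genes whose knock-down alters the TNF-alpha reporter response to LPS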 (primary screen). System: human THP-1 monocytic leukaemia cells, TNF dual-luciferase reporter clone, PMA-differentiated to macrophage-like cells. Reagents: siRNA pool against human genes, 50 nM. Timing: LPS for 4 h, given about 3 days after siRNA transfection. Challenge: bacterial LPS (TLR4 ligand), 10 ng/ml. Measured: 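Ratio of firefly to renilla light, scaled to the plate median and expressed as a robust z-score per replicate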. Direction: TNF reporter robust z-score: higher = stronger TNF reporter response to LPS. Call rule: 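Each well counts as active if its z-score is over 2.8 or under -1.5; controls are left without a call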.
This is an unselected part of about 18,000 deposited reagents. About 2,900 of them (16%) count as active. 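Calls are made per well; low scores hint the gene aids the LPS response, high scores that it dampens it.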 Repeated entries: four replicate wells of each siRNA pool. Reagent sequences are not shown.

target gene	TNF reporter robust z-score	Call
SLC9C2	-0.12	inactive
SLC9C2	1.47	inactive
SLC9C2	1.13	inactive
SLC9C2	3	active
DHRS13 (dehydrogenase/reductase 13)	-0.92	inactive
DHRS13 (dehydrogenase/reductase 13)	-1.39	inactive
DHRS13 (dehydrogenase/reductase 13)	-1.12	inactive
DHRS13 (dehydrogenase/reductase 13)	-1.02	inactive
GPR21 (G protein-coupled receptor 21)	0.21	inactive
GPR21 (G protein-coupled receptor 21)	0	inactive
GPR21 (G protein-coupled receptor 21)	-0.09	inactive
GPR21 (G protein-coupled receptor 21)	0.16	inactive
SRR (serine racemase)	0.26	inactive
SRR (serine racemase)	2.84	active
SRR (serine racemase)	1.39	inactive
SRR (serine racemase)	3.98	active
POMT1 (protein O-mannosyltransferase 1)	1.13	inactive
POMT1 (protein O-mannosyltransferase 1)	2.39	inactive
POMT1 (protein O-mannosyltransferase 1)	0.91	inactive
POMT1 (protein O-mannosyltransferase 1)	0.7	inactive
CTNNA3 (catenin alpha 3)	1.87	inactive
CTNNA3 (catenin alpha 3)	0.88	inactive
CTNNA3 (catenin alpha 3)	1.46	inactive
CTNNA3 (catenin alpha 3)	0.94	inactive
NME4 (NME/NM23 nucleoside diphosphate kinase 4)	-0.91	inactive
NME4 (NME/NM23 nucleoside diphosphate kinase 4)	-0.05	inactive
NME4 (NME/NM23 nucleoside diphosphate kinase 4)	-1.01	inactive
NME4 (NME/NM23 nucleoside diphosphate kinase 4)	-0.22	inactive
FCGR2B (Fc gamma receptor IIb)	0.05	inactive
FCGR2B (Fc gamma receptor IIb)	-0.11	inactive
FCGR2B (Fc gamma receptor IIb)	-1.16	inactive
FCGR2B (Fc gamma receptor IIb)	0	inactive
ZNF528 (zinc finger protein 528)	-1.56	active
ZNF528 (zinc finger protein 528)	-0.94	inactive
ZNF528 (zinc finger protein 528)	-1.58	active
ZNF528 (zinc finger protein 528)	-1.25	inactive
STAG2 (STAG2 cohesin complex component)	-0.47	inactive
STAG2 (STAG2 cohesin complex component)	-0.07	inactive
STAG2 (STAG2 cohesin complex component)	-0.99	inactive
STAG2 (STAG2 cohesin complex component)	-0.64	inactive
MMRN1 (multimerin 1)	0.5	inactive
MMRN1 (multimerin 1)	1.37	inactive
MMRN1 (multimerin 1)	-0.33	inactive
MMRN1 (multimerin 1)	0.65	inactive
ABCD4 (ATP binding cassette subfamily D member 4)	-0.22	inactive
ABCD4 (ATP binding cassette subfamily D member 4)	-0.17	inactive
ABCD4 (ATP binding cassette subfamily D member 4)	-0.05	inactive
ABCD4 (ATP binding cassette subfamily D member 4)	-0.21	inactive
SPMIP10 (sperm microtubule inner protein 10)	0.99	inactive
SPMIP10 (sperm microtubule inner protein 10)	0.75	inactive
SPMIP10 (sperm microtubule inner protein 10)	0.88	inactive
SPMIP10 (sperm microtubule inner protein 10)	1.38	inactive
KRT36 (keratin 36)	-0.45	inactive
KRT36 (keratin 36)	0.49	inactive
KRT36 (keratin 36)	0.46	inactive
KRT36 (keratin 36)	0.83	inactive
SPMIP8 (sperm microtubule inner protein 8)	0.04	inactive
SPMIP8 (sperm microtubule inner protein 8)	1.35	inactive
SPMIP8 (sperm microtubule inner protein 8)	2.99	active
SPMIP8 (sperm microtubule inner protein 8)	2.28	inactive
TARDBP (TAR DNA binding protein)	0.92	inactive
TARDBP (TAR DNA binding protein)	1.68	inactive
TARDBP (TAR DNA binding protein)	1.34	inactive
TARDBP (TAR DNA binding protein)	1.43	inactive

Next part (13 carried over from the part before).
target gene	TNF reporter robust z-score	Call
SPMIP10 (sperm microtubule inner protein 10)	1.38	inactive
KRT36 (keratin 36)	-0.45	inactive
KRT36 (keratin 36)	0.49	inactive
KRT36 (keratin 36)	0.46	inactive
KRT36 (keratin 36)	0.83	inactive
SPMIP8 (sperm microtubule inner protein 8)	0.04	inactive
SPMIP8 (sperm microtubule inner protein 8)	1.35	inactive
SPMIP8 (sperm microtubule inner protein 8)	2.99	active
SPMIP8 (sperm microtubule inner protein 8)	2.28	inactive
TARDBP (TAR DNA binding protein)	0.92	inactive
TARDBP (TAR DNA binding protein)	1.68	inactive
TARDBP (TAR DNA binding protein)	1.34	inactive
TARDBP (TAR DNA binding protein)	1.43	inactive
PEX5L (peroxisomal biogenesis factor 5 like)	-0.58	inactive
PEX5L (peroxisomal biogenesis factor 5 like)	-0.05	inactive
PEX5L (peroxisomal biogenesis factor 5 like)	-0.03	inactive
PEX5L (peroxisomal biogenesis factor 5 like)	0.22	inactive
DOK4 (docking protein 4)	-0.24	inactive
DOK4 (docking protein 4)	0.65	inactive
DOK4 (docking protein 4)	0.71	inactive
DOK4 (docking protein 4)	-0.17	inactive
C6orf163 (chromosome 6 open reading frame 163)	-0.17	inactive
C6orf163 (chromosome 6 open reading frame 163)	-0.15	inactive
C6orf163 (chromosome 6 open reading frame 163)	0.83	inactive
C6orf163 (chromosome 6 open reading frame 163)	1.46	inactive
EXOSC10 (exosome component 10)	-1.13	inactive
EXOSC10 (exosome component 10)	-1.5	inactive
EXOSC10 (exosome component 10)	-0.87	inactive
EXOSC10 (exosome component 10)	-0.19	inactive
ZNF512B (zinc finger protein 512B)	-1.39	inactive
ZNF512B (zinc finger protein 512B)	-0.61	inactive
ZNF512B (zinc finger protein 512B)	-0.46	inactive
ZNF512B (zinc finger protein 512B)	-0.31	inactive
CSHL1 (chorionic somatomammotropin hormone like 1)	-1.29	inactive
CSHL1 (chorionic somatomammotropin hormone like 1)	-1.17	inactive
CSHL1 (chorionic somatomammotropin hormone like 1)	-1.36	inactive
CSHL1 (chorionic somatomammotropin hormone like 1)	-1.1	inactive
ODAD4 (outer dynein arm docking complex subunit 4)	-1.34	inactive
ODAD4 (outer dynein arm docking complex subunit 4)	-0.25	inactive
ODAD4 (outer dynein arm docking complex subunit 4)	-0.6	inactive
ODAD4 (outer dynein arm docking complex subunit 4)	-1.56	active
UBXN6 (UBX domain protein 6)	3.11	active
UBXN6 (UBX domain protein 6)	2.53	inactive
UBXN6 (UBX domain protein 6)	2.71	inactive
UBXN6 (UBX domain protein 6)	1.69	inactive
EXOC8 (exocyst complex component 8)	-0.41	inactive
EXOC8 (exocyst complex component 8)	0.14	inactive
EXOC8 (exocyst complex component 8)	-0.24	inactive
EXOC8 (exocyst complex component 8)	0.09	inactive
IER5L (immediate early response 5 like)	0.32	inactive
IER5L (immediate early response 5 like)	0.35	inactive
IER5L (immediate early response 5 like)	0	inactive
IER5L (immediate early response 5 like)	0.75	inactive
GCNT4 (glucosaminyl (N-acetyl) transferase 4)	0.35	inactive
GCNT4 (glucosaminyl (N-acetyl) transferase 4)	0.4	inactive
GCNT4 (glucosaminyl (N-acetyl) transferase 4)	-0.26	inactive
GCNT4 (glucosaminyl (N-acetyl) transferase 4)	0.36	inactive
AP2A2 (adaptor related protein complex 2 subunit alpha 2)	1.95	inactive
AP2A2 (adaptor related protein complex 2 subunit alpha 2)	1.8	inactive
AP2A2 (adaptor related protein complex 2 subunit alpha 2)	2.34	inactive
AP2A2 (adaptor related protein complex 2 subunit alpha 2)	2.44	inactive
